A short description of the series: Plasma Na+ and osmolality measurements. It counts as in vivo, mice. To be noted: after injection of 300 μL 2M Mannitol.

Molecules are shown by their SMILES.

Regarding `OC[C@@H](O)[C@@H](O)[C@H](O)[C@H](O)CO` [Mannitol], the “plasma Na+ concentration” value is on record as “but not Na+ concentration was increased” and the plasma osmolality entry was “increased”.

The values are drawn from US10960084B2, “Modulation of fluid intake” (California Institute of Technology, priority 2018, dated 2021).
